Source: PMC9331606 (2022)
No constants are given. Whether binding was seen depends on the method and setting. In cells and extracts the contact can be indirect. Some results given as binding are weak or reduced against the parent protein; the word gives no strength.

The chains behind the UniProt entries cited, without tags or fusion partners. Residues count along the entry.
UniProt P29590: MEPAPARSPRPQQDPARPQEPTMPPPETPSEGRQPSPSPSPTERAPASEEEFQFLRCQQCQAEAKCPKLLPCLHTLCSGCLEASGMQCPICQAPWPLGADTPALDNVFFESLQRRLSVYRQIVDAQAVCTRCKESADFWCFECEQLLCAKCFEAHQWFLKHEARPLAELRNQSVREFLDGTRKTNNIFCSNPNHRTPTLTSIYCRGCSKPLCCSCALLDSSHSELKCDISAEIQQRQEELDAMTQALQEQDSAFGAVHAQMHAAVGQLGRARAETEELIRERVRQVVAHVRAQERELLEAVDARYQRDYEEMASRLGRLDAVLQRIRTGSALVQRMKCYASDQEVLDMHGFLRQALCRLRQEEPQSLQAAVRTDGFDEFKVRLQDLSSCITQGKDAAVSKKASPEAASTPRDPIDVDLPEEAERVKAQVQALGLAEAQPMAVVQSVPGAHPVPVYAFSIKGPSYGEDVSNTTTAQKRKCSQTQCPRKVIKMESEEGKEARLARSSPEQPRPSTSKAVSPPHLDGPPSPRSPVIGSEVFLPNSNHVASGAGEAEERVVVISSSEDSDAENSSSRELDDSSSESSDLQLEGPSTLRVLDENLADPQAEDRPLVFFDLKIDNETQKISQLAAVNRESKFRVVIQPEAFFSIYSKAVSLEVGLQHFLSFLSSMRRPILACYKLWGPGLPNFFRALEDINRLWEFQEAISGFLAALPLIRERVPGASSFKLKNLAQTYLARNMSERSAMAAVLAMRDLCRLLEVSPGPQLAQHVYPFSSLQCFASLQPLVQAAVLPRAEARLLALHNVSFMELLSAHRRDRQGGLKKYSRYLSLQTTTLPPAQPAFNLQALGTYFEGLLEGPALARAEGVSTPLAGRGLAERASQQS
UniProt P39748, residues 176-380: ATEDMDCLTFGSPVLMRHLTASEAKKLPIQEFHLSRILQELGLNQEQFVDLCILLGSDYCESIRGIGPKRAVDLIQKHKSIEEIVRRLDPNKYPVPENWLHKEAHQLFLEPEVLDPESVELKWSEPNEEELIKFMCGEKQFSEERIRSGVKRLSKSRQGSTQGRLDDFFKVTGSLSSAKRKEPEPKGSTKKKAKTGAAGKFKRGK
UniProt P52630: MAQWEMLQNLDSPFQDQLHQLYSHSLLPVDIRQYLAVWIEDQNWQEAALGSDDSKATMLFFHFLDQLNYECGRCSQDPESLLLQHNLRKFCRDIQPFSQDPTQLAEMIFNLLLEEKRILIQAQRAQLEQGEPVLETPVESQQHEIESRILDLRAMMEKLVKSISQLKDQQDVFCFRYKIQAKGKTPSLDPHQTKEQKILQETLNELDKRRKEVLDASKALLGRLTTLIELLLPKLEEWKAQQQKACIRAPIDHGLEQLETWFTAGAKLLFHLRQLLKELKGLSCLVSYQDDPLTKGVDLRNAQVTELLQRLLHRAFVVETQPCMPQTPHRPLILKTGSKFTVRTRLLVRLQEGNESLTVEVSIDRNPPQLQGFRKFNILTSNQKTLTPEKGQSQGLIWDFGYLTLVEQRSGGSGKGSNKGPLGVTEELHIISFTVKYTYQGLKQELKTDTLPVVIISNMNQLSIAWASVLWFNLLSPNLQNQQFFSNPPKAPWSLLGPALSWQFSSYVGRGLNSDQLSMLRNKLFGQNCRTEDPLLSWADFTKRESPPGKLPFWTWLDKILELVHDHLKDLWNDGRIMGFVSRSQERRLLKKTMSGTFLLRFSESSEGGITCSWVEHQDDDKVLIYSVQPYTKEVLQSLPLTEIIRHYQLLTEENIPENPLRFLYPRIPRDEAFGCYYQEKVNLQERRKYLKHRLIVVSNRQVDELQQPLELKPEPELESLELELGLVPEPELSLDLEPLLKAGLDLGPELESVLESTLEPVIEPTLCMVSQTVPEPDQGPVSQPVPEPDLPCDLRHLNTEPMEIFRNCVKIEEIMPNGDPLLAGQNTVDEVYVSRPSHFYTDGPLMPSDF

What was measured:
[1] = target: Flag-tagged human cytomegalovirus IE1 (hIE1), doxycycline-induced in HFF (human cytomegalovirus (HCMV)) (UniProt P13202); test: co-IP
[2] = target: NanoLuciferase-tagged human promyelocytic leukemia protein (hPML) (UniProt P29590); test: FRET or BRET
[3] = target: NanoLuciferase-tagged human flap endonuclease 1 aa 176-380 (human) (UniProt P39748); test: FRET or BRET; NanoBRET (Promega) in living HEK293T cells co-transfected with Halo-tagged and Luc-tagged proteins for 24 h; DNA ratio IE1 to human PML and FEN1 aa 176-380 1:10, to rat PML 1:100; 4 h with Halo ligand at 37 °C; read at 618 nm and 448 nm
[4] = target: NanoLuciferase-tagged human promyelocytic leukemia protein (hPML) (UniProt P29590); test: as above

“human signal transducer and activator of transcription 2 (hSTAT2), endogenous (from UniProt P52630 1-851)” was tested, and the binding [1] was “binds”.

In the case of “NanoLuciferase-tagged human promyelocytic leukemia protein (hPML) (from UniProt P29590 1-882)”, the binding [2] is reported as “binds”.

With “Halo-tagged human cytomegalovirus immediate early 1 protein (hIE1) (from UniProt P13202 1-491)” the binding [2] was “binds” and the binding [3] was “binds”.

With “Halo-tagged hIE1 L174P (from UniProt P13202 1-491)” the binding [4] was “no binding”.
